Source: publication PMC3859662
These are yes or no findings as the source states them, for the method shown. For part of these data: Binding calls can cover weak binding; strength is not graded here. Tags and fused reporters may be left off the sequences shown. For part of these data: In cells and extracts the contact can be indirect.

B1: myc-necdin (full-length necdin in pCMV-myc) (protein, UniProt P25233 1-325)
chain: MSEQSKDLSDPNFAAEVPDCEMQDSDAVPVGIPPPASLAANLAGPPCAPEGPMAAQQASPPPEERIEDVDPKILQQAAEEGRAHQPQSPARPIPAPPAPAQLVQKAHELMWYVLVKDQKRMVLWFPDMVKEVMGSYKKWCRSILRRTSVILARVFGLHLRLTNLHTMEFALVKALSPEELDRVALNNRMPMTGLLLMILSLIYVKGRGAREGAVWNVLRILGLRPWKKHSTFGDVRKIITEEFVQQNYLKYQRVPHIEPPEYEFFWGSRANREITKMQIMEFLARVFKKDPQAWPSRYREALEQARALREANLAAQAPRSSVSED

Columns and labels:
[1] = biological target: T1, necdin (full-length, yeast two-hybrid fusion) (mouse) (UniProt P25233); experiment: two-hybrid; deletion mapping: deleted cystin constructs (prey) co-transformed with full-length necdin (bait); selective SD/-Ade-His-Leu-Trp plates
T1 sequence: B1 chain

GST alone = experiment: pull-down; pCMV-GST-cystin (or GST alone) and pCMV-myc-necdin co-transfected into COS-7 cells; lysate incubated with immobilized glutathione beads overnight at 4 °C; eluted with 100 mM glutathione; blot with myc antibody

Row | Molecule | binding [1] | binding (GST alone)
1 | carboxy terminal fragment of cystin (mouse) (domain or fragment) | binds | –
2 | cystin-C25 (cystin with the C-terminal 25 amino acids deleted) (mouse) (domain or fragment) | no binding | –
3 | B1 | – | no binding
